# Laboratory results: PubChem BioAssay AID2685 (National Center for Advancing Translational Sciences (NCATS), 2010)
# The other results are listed elsewhere or left out. Shown are side measurements of this screen, not its main read-out; they come without a call. The list favours compounds with an active or inconclusive main result. The note in brackets gives the kind of curve behind each potency; many fits are weak.
# Assay: qHTS Assay for Lipid Storage Modulators in Drosophila S3 Cells;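 as to cell number change: cells counted by Cell Tracker Red CMTPX staining in the red channel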
# Conditions: BODIPY lipid droplet fluorescence, 18-24 h; for cell number change: measured here: cell count max response, cells fed with added oleic acid
# In short: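 Drosophila S3 cells got compounds at several concentrations plus oleic acid (400 uM solution). Laser-scanning cytometry with 488 nm excitation read lipid droplets at 500-530 nm and cells at 575-640 nm. Percent activity was relative to 20 uM Triacsin C.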
# [1] = measured here: lipid fluorescence (Fed channel) AC50, cells fed with added oleic acid
# [2] = measured here: cell number channel AC50, cells fed with added oleic acid
Compound,cell number change [%],AC50 [1],AC50 [2]
O=C(C1=C(O)C(=O)N(Cc2cccnc2)C1c1ccccn1)c1cccs1 (centres undefined),-17.2,"20.6 µM [falling, single point]",
COC(=O)Cn1c(Cc2ccccc2)nc2ccccc21,25.9,,
Cc1cc(N2CCN(c3ccccc3)CC2)n2ncnc2n1,8.33,"0.0517 µM [rising, full curve, poor fit]",
COc1cc2c(cc1OC)CN(CC(=O)Nc1ccc(S(=O)(=O)N3CCCC3)cc1)CC2,28,"29.1 µM [rising, single point]","3.66 µM [rising, partial curve, poor fit]"
O=C(NCCN1CCOCC1)C1CCC(=O)N1Cc1ccccc1Cl (centres undefined),-34.6,"29.1 µM [falling, single point]","16.4 µM [falling, single point]"
CSc1ncc(Cl)c(C(=O)NCc2cccnc2)n1,18.4,"0.58 µM [rising, single point]",
N#Cc1cc2c(nc1SCC(=O)N1CCCCC1)CCCCC2,2.99,"0.651 µM [rising, single point]",
COc1ccccc1C1CCN(C(=O)c2ccc(C(C)(C)C)cc2)CC1,-30.7,"29.1 µM [falling, single point]","29.1 µM [falling, single point]"
COCCn1nnnc1C(CC(C)C)N1CCN(C(=O)c2ccco2)CC1 (centres undefined),-1.89,"3.66 µM [falling, single point]",
Nc1nonc1-n1nnc(C(=O)N/N=C/c2ccco2)c1-c1ccccc1,-3.17,"29.1 µM [rising, single point]",
O=C1[C@H]2[C@@H](C(=O)N1c1cccc3ccccc13)C1(C(=O)c3ccccc3C1=O)N1CCC[C@@H]21,-9.66,"0.0291 µM [rising, full curve, poor fit]",
S=C(NCc1ccco1)Nc1ccc(Br)cc1Cl,76.3,,"23.1 µM [rising, single point]"
c1ccc(Oc2cc(-n3cncn3)ncn2)cc1,21.3,"20.6 µM [rising, single point]",
O=S(=O)(Nc1cccnc1)c1ccc(Cl)c(C(F)(F)F)c1,-2.36,"29.1 µM [rising, single point]",
O=C(C1CCN(Cc2ccc(Cl)cc2)CC1)N1CCN(Cc2ccc3c(c2)OCO3)CC1,6.07,"0.00461 µM [rising, full curve, poor fit]","0.00517 µM [rising, full curve, poor fit]"
Cc1ccc(C(C(=O)NCc2ccccc2)N(C(=O)c2ccccn2)c2ccccc2)o1 (centres undefined),2.56,,

# Compounds from the list above that contain an aryl thioether with sulfur outside any ring, in the order listed:
Compound,cell number change [%],AC50 [1],AC50 [2]
CSc1ncc(Cl)c(C(=O)NCc2cccnc2)n1,18.4,"0.58 µM [rising, single point]",
N#Cc1cc2c(nc1SCC(=O)N1CCCCC1)CCCCC2,2.99,"0.651 µM [rising, single point]",
